Binding data for one molecule are collected here from publication PMC10086748.

The assay deals with T1, CD151-Flag (UniProt P48509).
T1 sequence: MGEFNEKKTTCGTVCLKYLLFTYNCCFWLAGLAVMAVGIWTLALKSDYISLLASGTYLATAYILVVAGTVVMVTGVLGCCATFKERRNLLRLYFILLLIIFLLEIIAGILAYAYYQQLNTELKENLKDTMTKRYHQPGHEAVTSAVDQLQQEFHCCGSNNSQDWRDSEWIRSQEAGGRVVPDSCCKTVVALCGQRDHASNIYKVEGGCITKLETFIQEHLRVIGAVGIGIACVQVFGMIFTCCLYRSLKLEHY
Kind of assay: co-IP; HEK-293 cells transfected simultaneously with CD151-Flag, integrin α6-His, integrin β1-HA and integrin β4-HA; lysis in 20 mM Tris pH 7.5, 150 mM NaCl, 1% Triton X-100, 1 mM EDTA with protease inhibitors; incubated with anti-Flag, anti-His, anti-HA overnight at 4 °C; Dynabeads Protein G; western blotting. In general terms: In western blotting, separated proteins are transferred to a membrane and probed.

These are yes or no findings as the source states them, for the method shown. In cells and extracts the contact can be indirect. Some binding calls cover weakened binding; strength is not graded here. Where a sequence is shown, tags or fusion partners need not be part of it.

B1: integrin α6-His (protein, UniProt P23229 24-1130)
chain: FNLDTREDNVIRKYGDPGSLFGFSLAMHWQLQPEDKRLLLVGAPRAEALPLQRANRTGGLYSCDITARGPCTRIEFDNDADPTSESKEDQWMGVTVQSQGPGGKVVTCAHRYEKRQHVNTKQESRDIFGRCYVLSQNLRIEDDMDGGDWSFCDGRLRGHEKFGSCQQGVAATFTKDFHYIVFGAPGTYNWKGIVRVEQKNNTFFDMNIFEDGPYEVGGETEHDESLVPVPANSYLGLLFLTSVSYTDPDQFVYKTRPPREQPDTFPDVMMNSYLGFSLDSGKGIVSKDEITFVSGAPRANHSGAVVLLKRDMKSAHLLPEHIFDGEGLASSFGYDVAVVDLNKDGWQDIVIGAPQYFDRDGEVGGAVYVYMNQQGRWNNVKPIRLNGTKDSMFGIAVKNIGDINQDGYPDIAVGAPYDDLGKVFIYHGSANGINTKPTQVLKGISPYFGYSIAGNMDLDRNSYPDVAVGSLSDSVTIFRSRPVINIQKTITVTPNRIDLRQKTACGAPSGICLQVKSCFEYTANPAGYNPSISIVGTLEAEKERRKSGLSSRVQFRNQGSEPKYTQELTLKRQKQKVCMEETLWLQDNIRDKLRPIPITASVEIQEPSSRRRVNSLPEVLPILNSDEPKTAHIDVHFLKEGCGDDNVCNSNLKLEYKFCTREGNQDKFSYLPIQKGVPELVLKDQKDIALEITVTNSPSNPRNPTKDGDDAHEAKLIATFPDTLTYSAYRELRAFPEKQLSCVANQNGSQADCELGNPFKRNSNVTFYLVLSTTEVTFDTPDLDINLKLETTSNQDNLAPITAKAKVVIELLLSVSGVAKPSQVYFGGTVVGEQAMKSEDEVGSLIEYEFRVINLGKPLTNLGTATLNIQWPKEISNGKWLLYLVKVESKGLEKVTCEPQKEINSLNLTESHNSRKKREITEKQIDDNRKFSLFAERKYQTLNCSVNVNCVNIRCPLRGLDSKASLILRSRLWNSTFLEEYSKLNYLDILMRAFIDVTAAAENIRLPNAGTQVRVTVFPSKTVAQYSGVPWWIILVAILAGILMLALLVFILWKCGFFKRSRYDDSVPRYHAVRIRKEEREIKDEKYIDNLEKKQWITKWNENESYS
As for B1, the binding entry was “binds”.
